{"source": "PubChem BioAssay AID1224828 (NIAID, 2016)", "assay": "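Knock-downs that increase or decrease LPS-induced p65 nuclear translocation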 (primary screen)", "cell system": "mouse RAW264.7 G9 macrophage reporter cells (GFP-p65, Tnf promoter-mCherry)", "knock-down reagent": "siRNA pool against mouse genes, 100 nM", "time to read-out": "2 days siRNA transfection, then 40 min LPS before fixation", "conditions": "LPS (Salmonella minnesota R595) at 10 ng/ml", "measured": "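Microscopy ratio of nuclear to perinuclear-ring GFP-p65 signal, scaled to the plate median; gene score is the average of two replicate robust z-scores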", "scale": "p65 translocation robust z-score: higher = more nuclear NF-kappaB p65 after LPS than the plate median; nuclear/cytoplasmic p65 ratio: higher = more nuclear NF-kappaB p65", "rule for the call": "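Active if robust z is above 3.3 (negative regulators) or below -1.56, the Tlr4 control median (positive regulators); activity score 50 or more; control wells not called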", "meaning of the calls": "active = hit (p65 shift raised or lowered); inactive = no clear change", "note": "Here is an unselected part of about 17,000 reagents. In the full data, 762 (4.5%) were called active. 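Active calls include both raised and lowered p65 entry, mostly lowered; wells with fewer than 50 cells lack a z-score.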 The raw values are shown without normalisation."}
{"gene": "Carm1 (GeneID 59035)", "p65 translocation robust z-score": -0.29, "nuclear/cytoplasmic p65 ratio, rep 1": 1.52, "nuclear/cytoplasmic p65 ratio, rep 2": 1.76, "low cell count flag": "enough cells to score", "call": "inactive"}
{"gene": "Rfwd3 (GeneID 234736)", "p65 translocation robust z-score": 0.06, "nuclear/cytoplasmic p65 ratio, rep 1": 1.61, "nuclear/cytoplasmic p65 ratio, rep 2": 1.83, "low cell count flag": "enough cells to score", "call": "inactive"}
{"gene": "Spata19 (GeneID 75469)", "p65 translocation robust z-score": 2.31, "nuclear/cytoplasmic p65 ratio, rep 1": 1.7, "nuclear/cytoplasmic p65 ratio, rep 2": 1.29, "low cell count flag": "enough cells to score", "call": "inactive"}
{"gene": "Pdzk1 (GeneID 59020)", "p65 translocation robust z-score": 0.8, "nuclear/cytoplasmic p65 ratio, rep 1": 1.57, "nuclear/cytoplasmic p65 ratio, rep 2": 1.5, "low cell count flag": "enough cells to score", "call": "inactive"}
{"gene": "Enox2 (GeneID 209224)", "p65 translocation robust z-score": 0.9, "nuclear/cytoplasmic p65 ratio, rep 1": 1.63, "nuclear/cytoplasmic p65 ratio, rep 2": 2.01, "low cell count flag": "enough cells to score", "call": "inactive"}
{"gene": "Ntsr1 (GeneID 18216)", "p65 translocation robust z-score": -0.57, "nuclear/cytoplasmic p65 ratio, rep 1": 1.48, "nuclear/cytoplasmic p65 ratio, rep 2": 1.45, "low cell count flag": "enough cells to score", "call": "inactive"}
{"gene": "Pck1 (GeneID 18534)", "p65 translocation robust z-score": 1.75, "nuclear/cytoplasmic p65 ratio, rep 1": 2.07, "nuclear/cytoplasmic p65 ratio, rep 2": 1.51, "low cell count flag": "enough cells to score", "call": "inactive"}
{"gene": "Sar1b (GeneID 66397)", "p65 translocation robust z-score": 0.58, "nuclear/cytoplasmic p65 ratio, rep 1": 1.5, "nuclear/cytoplasmic p65 ratio, rep 2": 1.28, "low cell count flag": "enough cells to score", "call": "inactive"}
{"gene": "Zfp273 (GeneID 212569)", "p65 translocation robust z-score": 1.31, "nuclear/cytoplasmic p65 ratio, rep 1": 1.57, "nuclear/cytoplasmic p65 ratio, rep 2": 1.77, "low cell count flag": "enough cells to score", "call": "inactive"}
{"gene": "Mgat4f (GeneID 240755)", "nuclear/cytoplasmic p65 ratio, rep 1": 1.28, "nuclear/cytoplasmic p65 ratio, rep 2": 1.05, "low cell count flag": "fewer than 50 cells per well; well left out of scoring", "call": "inactive"}
{"gene": "Abcg4 (GeneID 192663)", "p65 translocation robust z-score": -0.5, "nuclear/cytoplasmic p65 ratio, rep 1": 1.54, "nuclear/cytoplasmic p65 ratio, rep 2": 1.59, "low cell count flag": "enough cells to score", "call": "inactive"}
{"gene": "Myl4 (GeneID 17896)", "p65 translocation robust z-score": -0.62, "nuclear/cytoplasmic p65 ratio, rep 1": 1.36, "nuclear/cytoplasmic p65 ratio, rep 2": 1.27, "low cell count flag": "enough cells to score", "call": "inactive"}
{"gene": "Gbp7 (GeneID 229900)", "p65 translocation robust z-score": -0.79, "nuclear/cytoplasmic p65 ratio, rep 1": 1.24, "nuclear/cytoplasmic p65 ratio, rep 2": 1.43, "low cell count flag": "enough cells to score", "call": "inactive"}
{"gene": "Ribc1 (GeneID 66611)", "p65 translocation robust z-score": -0.98, "nuclear/cytoplasmic p65 ratio, rep 1": 1.2, "nuclear/cytoplasmic p65 ratio, rep 2": 1.4, "low cell count flag": "enough cells to score", "call": "inactive"}
{"gene": "Pde3a (GeneID 54611)", "p65 translocation robust z-score": 0.86, "nuclear/cytoplasmic p65 ratio, rep 1": 1.5, "nuclear/cytoplasmic p65 ratio, rep 2": 1.58, "low cell count flag": "enough cells to score", "call": "inactive"}
{"gene": "Nfil3 (GeneID 18030)", "p65 translocation robust z-score": 1.55, "nuclear/cytoplasmic p65 ratio, rep 1": 1.73, "nuclear/cytoplasmic p65 ratio, rep 2": 1.54, "low cell count flag": "enough cells to score", "call": "inactive"}
{"gene": "Rab3d (GeneID 19340)", "p65 translocation robust z-score": -0.8, "nuclear/cytoplasmic p65 ratio, rep 1": 1.41, "nuclear/cytoplasmic p65 ratio, rep 2": 1.42, "low cell count flag": "enough cells to score", "call": "inactive"}
{"gene": "Or6c215 (GeneID 258545)", "p65 translocation robust z-score": -0.46, "nuclear/cytoplasmic p65 ratio, rep 1": 1.38, "nuclear/cytoplasmic p65 ratio, rep 2": 1.15, "low cell count flag": "enough cells to score", "call": "inactive"}
{"gene": "Or51e2 (GeneID 170639)", "p65 translocation robust z-score": 2.94, "nuclear/cytoplasmic p65 ratio, rep 1": 1.99, "nuclear/cytoplasmic p65 ratio, rep 2": 1.95, "low cell count flag": "enough cells to score", "call": "inactive"}
{"gene": "Tob1 (GeneID 22057)", "p65 translocation robust z-score": -0.42, "nuclear/cytoplasmic p65 ratio, rep 1": 1.5, "nuclear/cytoplasmic p65 ratio, rep 2": 1.42, "low cell count flag": "enough cells to score", "call": "inactive"}
{"gene": "C130050O18Rik (GeneID 319772)", "p65 translocation robust z-score": 0.5, "nuclear/cytoplasmic p65 ratio, rep 1": 1.47, "nuclear/cytoplasmic p65 ratio, rep 2": 1.62, "low cell count flag": "enough cells to score", "call": "inactive"}

In a second layout: entries from further up
{"gene":"Enox2 (GeneID 209224)","p65 translocation robust z-score":0.9,"nuclear/cytoplasmic p65 ratio, rep 1":1.63,"nuclear/cytoplasmic p65 ratio, rep 2":2.01,"low cell count flag":"enough cells to score","call":"inactive"}
{"gene":"Ntsr1 (GeneID 18216)","p65 translocation robust z-score":-0.57,"nuclear/cytoplasmic p65 ratio, rep 1":1.48,"nuclear/cytoplasmic p65 ratio, rep 2":1.45,"low cell count flag":"enough cells to score","call":"inactive"}
{"gene":"Pck1 (GeneID 18534)","p65 translocation robust z-score":1.75,"nuclear/cytoplasmic p65 ratio, rep 1":2.07,"nuclear/cytoplasmic p65 ratio, rep 2":1.51,"low cell count flag":"enough cells to score","call":"inactive"}
